Experimental data: PubChem BioAssay AID1259254 (NCATS, 2017)

Purpose: 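Finding genes that stop cells copying their DNA twice in one cycle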 (primary screen)
Cell system: human HCT116 colorectal cancer cells
Knock-down reagent: single siRNA against human genes
Duration: 3 days
Read-out: 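Nuclei stained with Hoechst and imaged; cell-cycle phase assigned by DNA content; G2 share scaled per plate, non-targeting siRNA 0%, GMNN siRNA 100%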
Reading the numbers: G2 robust z-score: higher = more G2 cells, more excess DNA replication
Call rule: 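Active siRNAs have a G2 robust z of 5 or more median absolute deviations over the median, which in these data means about 38% or higher of GMNN control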
The whole screen tested about 59,000 reagents; below is an unselected part. About 1,550 of them (2.6%) count as active. 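G2 share is only a proxy for re-replication; each gene was hit by three separate siRNAs, and active genes were retested.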 Unmarked entries are inactive. Reagents against one gene are numbered here. Further read-outs or replicates are left out here. Reagent sequences are not shown. Not given: the amount of reagent.

no.	Gene	reagent no.	G2 robust z-score
1	SKP1P2	1	2.08
2	SKP1P2	2	-0.665
3	SKP1P2	3	0.406
4	PRRT1	1	-0.202
5	PRRT1	2	-0.322
6	PRRT1	3	0.72
7	MBTPS2	1	-1.29
8	MBTPS2	2	-0.238
9	MBTPS2	3	0.152
10	FOXO1	1	-0.535
11	FOXO1	2	-0.328
12	FOXO1	3	5.16 (active)
13	P3H3	1	-0.594
14	P3H3	2	1.27
15	P3H3	3	1.56
16	CELA3A	1	4.54
17	CELA3A	2	2.81
18	CELA3A	3	-0.261
19	NLRC3	1	-0.661
20	NLRC3	2	-0.966
21	NLRC3	3	-0.607
22	NLRP4	1	-0.326
23	NLRP4	2	0.488
24	NLRP4	3	-0.301
25	SYP	1	2.42
26	SYP	2	-0.337
27	SYP	3	0.17
28	SLC37A2	1	3.04
29	SLC37A2	2	-0.618
30	SLC37A2	3	0.338
31	AAMDC	1	-0.314
32	AAMDC	2	-0.568
33	AAMDC	3	3.23
34	BMERB1	1	-0.107
35	BMERB1	2	-0.257
36	BMERB1	3	1.46
37	ITPR2	1	-0.83
38	ITPR2	2	1.24
39	ITPR2	3	1.41
40	KLHL26	1	5.06 (active)
41	KLHL26	2	0.0293
42	KLHL26	3	-1.06
43	SH3BP1	1	0.674
44	SH3BP1	2	2.25
45	SH3BP1	3	0.197
46	ATP13A2	1	0.658
47	ATP13A2	2	-0.586
48	ATP13A2	3	1.46
49	CUL9	1	0.356
50	CUL9	2	-1.26
51	CUL9	3	0.21
52	KIAA1586	1	-0.85
53	KIAA1586	2	0.315
54	KIAA1586	3	-0.399
55	GLIPR1L2	1	0.0453
56	GLIPR1L2	2	-1.02
57	GLIPR1L2	3	-0.452

Hits (from the list above):
Gene	reagent no.	G2 robust z-score
FOXO1	3	5.16 (active)
KLHL26	1	5.06 (active)

The results go on.
no.	Gene	reagent no.	G2 robust z-score
58	ZCCHC4	1	-0.365
59	ZCCHC4	2	-1.16
60	ZCCHC4	3	0.275
61	SMIM22	1	3.26
62	SMIM22	2	0.906
63	SMIM22	3	-0.924
64	MAPK3	1	5.01 (active)
65	MAPK3	2	2.26
66	MAPK3	3	-0.374
67	NPIPB1P	1	5.29 (active)
68	NPIPB1P	2	0.395
69	NPIPB1P	3	-0.0777
70	CHDH	1	-1.36
71	CHDH	2	-0.0618
72	CHDH	3	0.173
73	AFF1	1	-0.39
74	AFF1	2	-0.883
75	AFF1	3	-1.05
76	MCOLN3	1	0.699
77	MCOLN3	2	2.34
78	MCOLN3	3	4.44
79	ZSCAN26	1	-0.675
80	ZSCAN26	2	-0.649
81	ZSCAN26	3	-0.198
82	FAM218A	1	0.393
83	FAM218A	2	-1.07
84	FAM218A	3	-0.542
85	POLR1G	1	-0.275
86	POLR1G	2	0.835
87	POLR1G	3	0.594
